Assay results reported in PMC11578309.
No constants are given. Whether binding was seen depends on the method and setting. For part of these data: Binding seen in cells or lysates may run through a third protein. Some results given as binding are weak or reduced against the parent protein; the word gives no strength. For part of these data: Sequences can lack the tags named with a protein. Blank lines part the entries; values can stand above or below the binder they belong to.

Key:
[1] = target: T1, phosphomevalonate kinase (PMVK), endogenous (human (endogenous in Hep3B and MHCC97L)) (UniProt Q15126); test: co-IP; endogenous proteins in Hep3B and MHCC97L whole cell lysate; mouse anti-PMVK antibody for IP, mouse IgG as negative control; immunoblot
T1 sequence: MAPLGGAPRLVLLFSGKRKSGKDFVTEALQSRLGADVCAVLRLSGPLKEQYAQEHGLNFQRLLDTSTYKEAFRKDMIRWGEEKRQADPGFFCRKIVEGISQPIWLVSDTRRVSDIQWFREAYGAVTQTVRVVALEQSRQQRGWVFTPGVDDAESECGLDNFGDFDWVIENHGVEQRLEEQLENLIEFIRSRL

[2] = target: T2, GST-PMVK fusion protein (human) (UniProt Q15126); test: pull-down; GST-PMVK (or GST) bound to Sepharose beads, incubated with ACAT1 or GAD1 fusion proteins in 1 mL RIPA buffer at 4 °C for 4 h; immunoblot; both purified
T2 sequence: T1 sequence

binding [1]: binds
B1: glutamate decarboxylase 1 (GAD1), endogenous (enzyme, UniProt Q99259 1-594)
chain: MASSTPSSSATSSNAGADPNTTNLRPTTYDTWCGVAHGCTRKLGLKICGFLQRTNSLEEKSRLVSAFKERQSSKNLLSCENSDRDARFRRTETDFSNLFARDLLPAKNGEEQTVQFLLEVVDILLNYVRKTFDRSTKVLDFHHPHQLLEGMEGFNLELSDHPESLEQILVDCRDTLKYGVRTGHPRFFNQLSTGLDIIGLAGEWLTSTANTNMFTYEIAPVFVLMEQITLKKMREIVGWSSKDGDGIFSPGGAISNMYSIMAARYKYFPEVKTKGMAAVPKLVLFTSEQSHYSIKKAGAALGFGTDNVILIKCNERGKIIPADFEAKILEAKQKGYVPFYVNATAGTTVYGAFDPIQEIADICEKYNLWLHVDAAWGGGLLMSRKHRHKLNGIERANSVTWNPHKMMGVLLQCSAILVKEKGILQGCNQMCAGYLFQPDKQYDVSYDTGDKAIQCGRHVDIFKFWLMWKAKGTVGFENQINKCLELAEYLYAKIKNREEFEMVFNGEPEHTNVCFWYIPQSLRGVPDSPQRREKLHKVAPKIKALMMESGTTMVGYQPQGDKANFFRMVISNPAATQSDIDFLIEEIERLGQDL

binding [1]: binds
B2: acetyl-CoA acetyltransferase 1 (ACAT1), endogenous (enzyme, UniProt P24752 34-427)
chain: VSKPTLKEVVIVSATRTPIGSFLGSLSLLPATKLGSIAIQGAIEKAGIPKEEVKEAYMGNVLQGGEGQAPTRQAVLGAGLPISTPCTTINKVCASGMKAIMMASQSLMCGHQDVMVAGGMESMSNVPYVMNRGSTPYGGVKLEDLIVKDGLTDVYNKIHMGSCAENTAKKLNIARNEQDAYAINSYTRSKAAWEAGKFGNEVIPVTVTVKGQPDVVVKEDEEYKRVDFSKVPKLKTVFQKENGTVTAANASTLNDGAAALVLMTADAAKRLNVTPLARIVAFADAAVEPIDFPIAPVYAASMVLKDVGLKKEDIAMWEVNEAFSLVVLANIKMLEIDPQKVNINGGAVSLGHPIGMSGARIVGHLTHALKQGEYGLASICNGGGGASAMLIQKL

binding [2]: binds
B3: ACAT1 fusion protein (recombinant, for GST pull-down) (enzyme, UniProt P24752 34-427)
chain: B2 chain
